Assay results taken from paper PMC5877880.

Protein sequences, listed by entry. Tags and fused reporters are not part of them. Lines headed by an entry give the natural chain unless they say otherwise; changes in a name come on top.
UniProt P09429: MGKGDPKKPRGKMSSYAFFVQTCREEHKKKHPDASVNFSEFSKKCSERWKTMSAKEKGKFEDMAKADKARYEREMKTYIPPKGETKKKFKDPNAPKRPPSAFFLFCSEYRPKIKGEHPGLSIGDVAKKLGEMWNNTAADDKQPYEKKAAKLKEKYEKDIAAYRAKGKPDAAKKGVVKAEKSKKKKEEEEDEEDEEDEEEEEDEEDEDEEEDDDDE
UniProt P63158: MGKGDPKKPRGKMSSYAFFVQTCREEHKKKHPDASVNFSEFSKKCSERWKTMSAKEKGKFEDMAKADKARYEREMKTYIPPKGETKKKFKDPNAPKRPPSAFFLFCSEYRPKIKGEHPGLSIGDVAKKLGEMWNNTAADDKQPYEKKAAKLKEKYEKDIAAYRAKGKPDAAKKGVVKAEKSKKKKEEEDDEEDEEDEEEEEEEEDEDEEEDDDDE
UniProt P01584: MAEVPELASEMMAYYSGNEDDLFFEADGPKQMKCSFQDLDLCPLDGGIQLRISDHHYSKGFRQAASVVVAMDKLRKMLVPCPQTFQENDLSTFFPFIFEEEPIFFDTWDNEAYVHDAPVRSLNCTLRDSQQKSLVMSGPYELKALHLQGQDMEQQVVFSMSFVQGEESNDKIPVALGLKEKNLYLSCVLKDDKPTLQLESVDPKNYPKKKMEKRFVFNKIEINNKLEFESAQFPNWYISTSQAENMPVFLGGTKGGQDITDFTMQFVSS
UniProt P10749: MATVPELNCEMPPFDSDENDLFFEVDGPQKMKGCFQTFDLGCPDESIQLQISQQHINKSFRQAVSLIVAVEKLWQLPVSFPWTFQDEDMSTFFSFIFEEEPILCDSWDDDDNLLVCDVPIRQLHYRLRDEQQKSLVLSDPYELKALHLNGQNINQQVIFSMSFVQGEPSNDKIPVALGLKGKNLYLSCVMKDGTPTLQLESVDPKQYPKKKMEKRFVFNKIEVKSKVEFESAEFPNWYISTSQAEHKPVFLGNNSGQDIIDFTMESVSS

Experiments:
[1] = target: High-Motility Group Box-1 (HMGB1), human plasma (human (endogenous in human plasma)) (UniProt P09429); test: co-IP; Catch and Release kit (Millipore) spin column; 500 μg of plasma sample with anti-HMGB1 antibody and antibody capture affinity ligand for 30 minutes; washes, elution; flow through and eluate blotted for HMGB1 and IL-1β; mouse or human plasma, control and burn
[2] = target: High-Motility Group Box-1 (HMGB1), mouse plasma (mouse (endogenous in mouse plasma)) (UniProt P63158); test: as above

Substance	binding [1]	binding [2]
pro-IL-1β (31kD pro-form of IL-1β), human plasma (from UniProt P01584)	binds	–
pro-IL-1β (31kD pro-form of IL-1β), mouse plasma (from UniProt P10749)	–	binds

Results are given in words; binding and its absence hold for the method and conditions named. Binding seen in cells or lysates may run through a third protein. A result given as binding can be weak or reduced; the word gives no strength.
